Data reported in PubChem BioAssay AID1259415 (National Center for Advancing Translational Sciences (NCATS), 2018).
Hit rate of the full screen: of about 410,000 compounds, about 18,000 (4.4%) were called active. Inconclusive means that the source gave no clear call. Such entries were picked first, then a sample of the others. No stated cut-off is given here; in the data, active means activity change below about -60%; inconclusive means no clear call, values can overlap the other calls; inactive means above about -39%.

Assay: qHTS Assay for inhibitors of the human cytomegalovirus (HCMV)
Conditions: HFF cells, HCMV-luciferase reporter, 72 h; at 57.5 µM; active compounds read low
In short: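 Human foreskin fibroblasts infected with luciferase-reporter HCMV at MOI 1 PFU/cell, compounds at two doses. Luciferase measured 72 h post infection; normalized to buffer-only basal and Salinomycin (10uM) controls.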
On the % scale 0 is the no-effect control and ±100 the full control effect.

Compound | activity change, negative = inhibition
CC(=O)c1cccc(NC(=O)N2CCCC(C(=O)c3cc(F)ccc3F)C2)c1 (stereo not drawn) | inconclusive: -40.7%
COc1cc(SC)ccc1C(=O)Nc1ccon1 | active: -107%
C/C(=N\NC(=O)c1cc(C2CC2)nc2ccccc12)c1ccc(O)cc1O | active: -60.6%
CC(OC(=O)CNC(=O)C1CCCCC1)C(=O)NCc1ccccc1 (stereo not drawn) | inactive: -15.9%
O=C(C1CC1)N1CCc2cc(S(=O)(=O)N3CCCc4ccccc43)ccc21 | active: -68.4%
CCOC(=O)c1cc(CC)sc1NC(=O)c1ccc([N+](=O)[O-])c(N2CCOCC2)c1 | inactive: 56.3%
O=c1c2cnn(-c3ccccc3)c2nc(-c2ccco2)n1-c1ccccc1 | active: -71.4%
COC(=O)C1=C(c2cccc(Cl)c2)C[C@@H]2CC[C@H]1N2C(=O)N1CCCC1 | inconclusive: -49.5%
Nc1nc(N2CCOCC2)n[nH]1 | inconclusive: -49.3%
CC(C)c1nnc(NC(=O)CSc2nc3ccccc3s2)s1 | active: -72.9%
COc1cc(C2c3c(oc4ccccc4c3=O)C(=O)N2c2nccs2)ccc1O (stereo not drawn) | inconclusive: -46.6%
COCCNC(=O)CCCn1c(SCC(=O)Nc2cccc(C)c2)nc2c(sc3ccccc32)c1=O | inconclusive: -45.5%
COc1cccc(CNC(=O)Cn2ncc3c4ccccc4n(C)c3c2=O)c1 | inactive: 17.4%
CC1=NN(C(=O)c2ccc(Cn3nc(C)c([N+](=O)[O-])c3C)o2)C(O)(C(F)(F)F)C1 (stereo not drawn) | inconclusive: -46.1%
O=C(NC(NC(=S)Nc1cccc(C(=O)O)c1)C(Cl)(Cl)Cl)OCc1ccccc1 (stereo not drawn) | inconclusive: -46.1%
Cc1ccc(C(=O)O)cc1NC(=O)Nc1ccc2c(c1)OCO2 | inactive: 53.1%
COc1ccc(Br)cc1CN1CCN(C(=O)c2cccc(OC)c2OC)CC1 | inconclusive: -43.5%
COc1cccc(CNC(=O)C(=O)NCC2OCCCN2S(=O)(=O)c2cc(C)ccc2C)c1 (stereo not drawn) | inconclusive: -50.6%
COCCc1ccc(OC2(C)CCN(Cc3ccc(OC)c4ccccc34)C2)cc1 (stereo not drawn) | inactive: 0.128%
Cc1cccc(-n2c(=O)c3c(C)c(C)sc3n(CC(N)=O)c2=O)c1 | inconclusive: 0%
CCCN1C2CCCC1CC(NC(=O)c1ccc(Br)cc1)C2 (stereo not drawn) | inactive: 41.2%

Compound | activity change, negative = inhibition
CCCCn1c(SCC(=O)Nc2nnc(CC)s2)nc2c1c(=O)n(C)c(=O)n2C | inconclusive: -53.9%
Oc1ccc(N2CCN(c3ccnc4cc(Cl)ccc34)CC2)cc1 | active: -65.8%
CN(C)CCCNc1ncnc2oc(-c3ccccc3)c(-c3ccccc3)c12 | inconclusive: -44.8%
Cc1ccc(-c2nc(CS(=O)CC(=O)NCCN3CCCCC3C)c(C)o2)cc1 (stereo not drawn) | inconclusive: -43.3%
COc1ccc(NC(=O)c2ccc(NC(=O)COC(=O)c3cnc(C)cn3)cc2)cc1 | inactive: -10%
Cc1ccc(S(=O)(=O)c2nc(-c3ccccc3)oc2N2CCC(C(N)=O)CC2)cc1 | inactive: 70.3%
Cc1cc(C)cc(N2C(N)=NC(N)=NC2c2ccccc2F)c1 (stereo not drawn) | inconclusive: -47.2%
COC(=O)c1ccc(NC(=S)N2CCN(Cc3ccccc3OC)CC2)cc1 | active: -79.7%
Cc1cc(Nc2ccccc2O)c2ccccc2n1 | inconclusive: -54.8%
CCN(CC)S(=O)(=O)c1ccc(N2CCOCC2)c(NS(=O)(=O)c2ccc(C)cc2)c1 | inconclusive: -47.3%
Cc1ccc(Cl)cc1NC(=O)COC(=O)c1ccc(N2CCCC2)c([N+](=O)[O-])c1 | inconclusive: -41.9%
COc1ccc(-c2c([C@H]3[C@H]4C=CC[C@@H](C)[C@@H]4C(=O)N3Cc3ccccc3)ccc3ccccc23)cc1OC | active: -83.6%
COc1ccc(C(=O)OCC(=O)c2ccc(C3CCCCC3)cc2)cc1 | inconclusive: -56.2%
Cc1cccc(C)c1-n1c(SCC(=O)N2CC(=O)Nc3ccccc32)nc2ccccc2c1=O | inconclusive: -58.1%
O=C(CSc1nccc(=O)[nH]1)NN(c1ccccc1)c1ccccc1 | inconclusive: -46%
CN(C)CCn1cnc2c1c(=O)[nH]c(=O)n2Cc1ccccc1 | inconclusive: -50.9%
CC(=O)c1c(C)[nH]c(C(=O)NC2CCSc3ccccc32)c1C (stereo not drawn) | inconclusive: -56%
CN1C(=O)C2(OCC(COc3ccc(Cl)cc3)O2)c2ccccc21 (stereo not drawn) | inconclusive: -40.9%
Nc1nonc1C(=O)N/N=C/c1ccc(-c2ccc(Cl)c(C(=O)O)c2)o1 | active: -72.7%
O=c1[nH]c2ccccc2n1C1CCN(C(c2cccc3ccccc23)c2nnnn2-c2ccc3c(c2)OCCO3)CC1 (stereo not drawn) | active: -75.6%
Cc1cccc(CNC(=O)c2ccc(NC(=O)N3CCSc4ncccc43)cc2)c1 | inconclusive: 0%

Compound | activity change, negative = inhibition
Cc1cccc(C)c1N1C(=O)C(CCc2ccccc2)N(C(=O)c2ccc(F)cc2)c2ccccc21 (stereo not drawn) | inconclusive: -59.7%
CCN1CCCC1CNCC(O)COc1ccc(C(C)(C)C)cc1C (stereo not drawn) | inconclusive: -40.2%
COCCCN(Cc1cc(OC)c(OC)c(OC)c1)C(=S)Nc1cccc(SC)c1 | inconclusive: -48.8%
O=c1[nH]c(C2CCN(S(=O)(=O)c3cccc(C(F)(F)F)c3)CC2)nc2c1nnn2Cc1cccc(F)c1 | inconclusive: -43.4%
CC1CC(C)CN(C(=O)COc2ccc([N+](=O)[O-])cc2Cl)C1 (stereo not drawn) | inconclusive: -41.4%
Cc1ccc(NC(=O)c2ccc(S(=O)(=O)N3CCCCCC3)cc2)nc1 | inconclusive: -58.1%
CN(C)CCNC(=O)c1ccc(Cn2c(=O)c3cccn3c3cccnc32)cc1 | inconclusive: -58.1%
CCC1CCCCN1C(=O)c1ccc(OC2CCN(Cc3ccccn3)CC2)cc1 (stereo not drawn) | inactive: 13.8%
O=C(Nc1ccccc1N1CCOCC1)c1ccc(N2CCCC2=O)cc1 | inconclusive: -50.1%
C#CCN(C[C@@H]1[C@@H](OC(=O)NCC2CCCCC2)[C@@H](OC(=O)NCC2CCCCC2)Cn2c(=O)ccc(=O)n21)S(=O)(=O)c1ccc(C)cc1 | active: -102%
O=C(CNC(=O)c1ccccc1F)N/N=C/c1cc(Br)ccc1OC(=O)/C=C/c1ccco1 | active: -82.8%
Cc1cccc(C(=O)Nc2nc(-c3nnn(-c4cc(C)ccc4C)c3C)ns2)c1 | active: -62.3%
CCOCCCN(CCC#N)S(=O)(=O)c1ccc(S(=O)(=O)N2CCCC2)cc1 | inconclusive: -54.5%
C=CCn1c(SCc2nc3scc(-c4ccccc4)c3c(=O)[nH]2)nnc1-c1ccccc1F | inactive: -15.4%
COc1cccc(NC(=S)NCc2ccc3c(c2)cc(C)n3C)c1 | inconclusive: -41.4%
Cc1cc(C)nc(NC(=O)c2ccc([N+](=O)[O-])o2)n1 | inactive: -35.2%
COc1cccc(C2CC(=O)Nc3c2c(=O)n(C)c2nc4ccccc4n32)c1 (stereo not drawn) | inactive: 10.6%
Cc1ccc(S(=O)(=O)N2CCOC23CCN(C(=O)c2ccccc2Br)CC3)cc1 | inconclusive: -40.3%
Cn1c(N2CCOCC2)nc2c1c(=O)n(Cc1ccc(Cl)cc1)c(=O)n2C | inactive: -30.6%
COc1ccc(CNC(C)C23CC4CC(CC(C4)C2)C3)c(OC)c1OC (stereo not drawn) | active: -61%
CCOc1cc(/C=N/Nc2nc(-c3cccc(S(=O)(=O)N4CCCC4)c3)cs2)ccc1O | inconclusive: -43.2%

Compound | activity change, negative = inhibition
COc1ccc(Cc2nc3ccc(C(=O)N4CCN(C)C(C)C4)cc3o2)cc1OC (stereo not drawn) | active: -63.9%
Cc1ccc(NC(=O)c2cc(=O)c3ccccc3o2)cc1S(=O)(=O)N1CCCCC1 | active: -68.8%
COC(=O)c1ccccc1NC(=O)C1CCCN(S(=O)(=O)c2ccc(F)cc2)C1 (stereo not drawn) | inconclusive: -43%
O=C1C2C3C=CC(C3=C(c3ccccc3)c3ccccc3)C2C(=O)N1Cc1ccccc1 (stereo not drawn) | inactive: -29.5%
Cc1cc(C)cc(OCC(=O)NNC(=S)NC(=O)C2CC2)c1 | active: -80.3%
O=[N+]([O-])c1ccc(S(=O)(=O)NCCS(=O)(=O)N2CCN(c3ccccc3)CC2)cc1 | inconclusive: -45.3%
COc1cc(NS(=O)(=O)c2ccc(NC(=S)NC(=O)c3sc4ccccc4c3Cl)cc2)ncn1 | inactive: -22.6%
O=C(N/N=C/c1ccncc1)c1ccc(NC(=O)c2ccc(Cl)cc2)cc1 | inconclusive: -43.4%
c1ccc(Cc2nnc3sc(-c4ccncc4)nn23)cc1 | inconclusive: -53.1%
COc1ccc(C(=O)NNC(=O)COc2ccc(Cl)cc2)c(OC)c1 | inconclusive: -49%
COc1ccc(-n2c(SCC(=O)Nc3ccccc3)nc(O)cc2=O)cc1 | inconclusive: -42.2%
O=C(Cn1nnc(-c2ccc(F)cc2)n1)Nc1cccc(S(=O)(=O)N2CCCC2)c1 | active: -60.1%
COc1ccc(COc2cc(-c3cccc(OC)c3)nc3ccc(NC(=O)c4ccc(OC)cc4)cc23)cc1 | active: -81.4%
COc1c(OC(C)=O)ccc(/C=N\NC(=O)c2ccc(Br)cc2)c1[N+](=O)[O-] | inconclusive: -50.8%
Cc1nc(CCNC(=O)c2cc(COc3ccc(F)cc3Cl)on2)sc1C | inconclusive: -50.4%
CC1CN(c2nnc(-c3ccccc3)c3ccccc23)CC(C)O1 (stereo not drawn) | inconclusive: -46.3%
Cc1cc(NC(=O)CCC(=O)NNC(=O)c2ccc(C(C)(C)C)cc2)no1 | active: -74.8%
OC1C(O)C(O)C(O)C(O)C1O (stereo not drawn) | inconclusive: -44.1%
Cc1cc(S(=O)(=O)Nc2nc(CN3CCOCC3)nc3sc4c(c23)CCCC4)ccc1F | inactive: 36.1%
O=C(CC(NC(=O)c1ccccc1)c1ccccc1)NCc1ccccc1 (stereo not drawn) | inconclusive: -44.9%

Part of the list above, tab-delimited.
Compound	activity change, negative = inhibition
Cc1ccc(S(=O)(=O)N2CCOC23CCN(C(=O)c2ccccc2Br)CC3)cc1	inconclusive: -40.3%
Cn1c(N2CCOCC2)nc2c1c(=O)n(Cc1ccc(Cl)cc1)c(=O)n2C	inactive: -30.6%
COc1ccc(CNC(C)C23CC4CC(CC(C4)C2)C3)c(OC)c1OC (stereo not drawn)	active: -61%
CCOc1cc(/C=N/Nc2nc(-c3cccc(S(=O)(=O)N4CCCC4)c3)cs2)ccc1O	inconclusive: -43.2%
COc1ccc(Cc2nc3ccc(C(=O)N4CCN(C)C(C)C4)cc3o2)cc1OC (stereo not drawn)	active: -63.9%
Cc1ccc(NC(=O)c2cc(=O)c3ccccc3o2)cc1S(=O)(=O)N1CCCCC1	active: -68.8%
COC(=O)c1ccccc1NC(=O)C1CCCN(S(=O)(=O)c2ccc(F)cc2)C1 (stereo not drawn)	inconclusive: -43%
O=C1C2C3C=CC(C3=C(c3ccccc3)c3ccccc3)C2C(=O)N1Cc1ccccc1 (stereo not drawn)	inactive: -29.5%
Cc1cc(C)cc(OCC(=O)NNC(=S)NC(=O)C2CC2)c1	active: -80.3%
O=[N+]([O-])c1ccc(S(=O)(=O)NCCS(=O)(=O)N2CCN(c3ccccc3)CC2)cc1	inconclusive: -45.3%
COc1cc(NS(=O)(=O)c2ccc(NC(=S)NC(=O)c3sc4ccccc4c3Cl)cc2)ncn1	inactive: -22.6%
O=C(N/N=C/c1ccncc1)c1ccc(NC(=O)c2ccc(Cl)cc2)cc1	inconclusive: -43.4%
c1ccc(Cc2nnc3sc(-c4ccncc4)nn23)cc1	inconclusive: -53.1%
COc1ccc(C(=O)NNC(=O)COc2ccc(Cl)cc2)c(OC)c1	inconclusive: -49%
COc1ccc(-n2c(SCC(=O)Nc3ccccc3)nc(O)cc2=O)cc1	inconclusive: -42.2%
O=C(Cn1nnc(-c2ccc(F)cc2)n1)Nc1cccc(S(=O)(=O)N2CCCC2)c1	active: -60.1%
COc1ccc(COc2cc(-c3cccc(OC)c3)nc3ccc(NC(=O)c4ccc(OC)cc4)cc23)cc1	active: -81.4%
COc1c(OC(C)=O)ccc(/C=N\NC(=O)c2ccc(Br)cc2)c1[N+](=O)[O-]	inconclusive: -50.8%
Cc1nc(CCNC(=O)c2cc(COc3ccc(F)cc3Cl)on2)sc1C	inconclusive: -50.4%
CC1CN(c2nnc(-c3ccccc3)c3ccccc23)CC(C)O1 (stereo not drawn)	inconclusive: -46.3%
Cc1cc(NC(=O)CCC(=O)NNC(=O)c2ccc(C(C)(C)C)cc2)no1	active: -74.8%
OC1C(O)C(O)C(O)C(O)C1O (stereo not drawn)	inconclusive: -44.1%
